According to patent US20240327533A1:
Results are given in words; binding and its absence hold for the method and conditions named. Some entries that bind do so weakly or less than the wild type.

Amino acid sequences for entries named in this document (tags omitted). Residues count along the entry.
UniProt Q02223, residues 1-54: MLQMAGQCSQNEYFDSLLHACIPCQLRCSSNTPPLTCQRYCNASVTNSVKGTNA

Biological target: BCMA antigen (UniProt Q02223)
Assay: flow cytometry, CAR-T cells stained with BCMA antigen

binding: binds
B1: CAR-S1 (single S scFv CAR targeting BCMA, on CAR-T cells) (scFv, V domains shown)
VH: QVQLVQSGAEVKKPGASVKLSCKASGYTFTDYYIHWVRQAPGQGLEWIGYINPNSGYTNYAQKFQGRATMTADKSINTAYVELSRLRSDDTAVYFCTRYMWERVTGFFDFWGQGTMVTVSS
VL: DIQMTQSPSSVSASVGDRVTITCLASEDISDDLAWYQQKPGKAPKVLVYTTSSLQSGVPSRFSGSGSGTDFTLTISSLQPEDFATYFCQQTYKFPPTFGGGTKVEIKR
